Screening data, single-dose tests

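Whole-parasite assay of Trypanosoma brucei over 72 hours; the read-out is not stated. Compounds at 30 µM. Higher reads as stronger inhibition (inferred: compounds with an IC50 in retests scored well above the rest). Values scatter widely below zero; nearly all retest evidence comes from the higher of the two concentrations used. Of about 64,000 compounds tested this way, about 940 (1.5%) reached 50% or more in at least one test.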

Values are the deposited “Percent Effect”, in %.
The controls that fix the scale are not given in the record; negative values are as filed.
Compounds were drawn at random from those tested, without regard to their results.

structure | percent effect
CCc1cnc(N2CCC3(CCN(Cc4cccc(C)c4)C3=O)C2)nc1 (centres undefined) | -6.421%
CCC[C@@H]1CN(Cc2c[nH]c(CC3CCCC3)n2)C[C@H]1C(=O)O | -47.78%
Cc1cnn(CCC(=O)N2CCC3(CCC(=O)N(CC4CC4)C3)CC2)c1 | -9.843%
CNC(=O)N1CCC(=Cc2ccccc2)CC1 | 8.743%
CN(Cc1ccc(Cl)s1)C(=O)CN1CC(n2cccn2)C1 | 47.7%
CC(=O)c1ccc(NC(=O)N[C@H](C(=O)O)C(C)C)cc1 | -16.09%
Cc1cc(C(=O)N2CC[C@@H](O)[C@@H]2Cc2ccccc2)no1 | -11.84%
Cc1nc(N2Cc3cnn(Cc4ccc(F)cc4)c3C2)no1 | 12.66%
COCCn1cc2c(n1)C(CNCc1nccs1)OCC2.O=C(O)C(F)(F)F.O=C(O)C(F)(F)F (centres undefined) | -42.47%
[H][C@]12CC[C@]([H])(CN(CC(=O)N(C)C)C1)N(Cc1c(Cl)cncc1Cl)C2 | 8.456%
COC(C(=O)NCc1c(C)nc2cc(=O)[nH]n2c1C)c1ccccc1 (centres undefined) | -37.76%
CCS(=O)(=O)CCNC(=O)NC(C)c1cc(C)sc1C (centres undefined) | -18.03%
COc1ccc(CN2CCn3cc(CN4CCCCC4)nc3C2)cc1.O=C(O)C(F)(F)F.O=C(O)C(F)(F)F | -26.4%
Cc1ccc(CN2CCOCS2(=O)=O)cc1F | -18.43%
CC(=O)NCCC(=O)NCc1cccnc1-n1cnc2ccccc21 | 30.67%
c1ccc2c(c1)CN(c1ncnc3sc4c(c13)CCNC4)CCO2 | -1.025%
CSc1ccc(NS(=O)(=O)c2cnn(C)c2)cn1 | 44.67%
O=C(O)C(F)(F)F.O=C(O)C(F)(F)F.O=C(c1cccnc1)N1CC[C@H](OCC2CC2)[C@@H]1Cc1cccnc1 | -13.11%
CCN1CCC(CNC(=O)C2(c3cccc(C)c3)CC2)C1 (centres undefined) | -7.735%
OC(COCc1ccccc1F)CN1CCc2c(ncn2C2CC2)C1 (centres undefined) | 10.76%
CN(Cc1n[nH]c2c1CCC2)C(=O)CCc1cc2n(n1)CCNC2 | -78.54%
CCOC(=O)c1c(NC(=O)C2CCN(C(C)=O)CC2)sc(C)c1CC | -18.28%
CC(C)NC(=O)[C@@H]1Cc2[nH]cnc2CN1CCCc1ccccc1 | -12.9%
CC(O)CN1CCC(CN(C)CCC(=O)NC2CCCCC2)CC1 (centres undefined) | -57.06%
Cc1ccc(-c2cc(CNC(=O)N3CCSCC3)on2)cc1 | -8.754%
O=C(O)C(F)(F)F.[H][C@]12CCC[C@@]1(COCc1cccnc1)CN(C(=O)c1ccsc1)C2 | 26.28%
CC(NC(=O)COc1nc(C(C)(C)C)no1)c1ccco1 (centres undefined) | -3.166%
O=C(NCc1nc(NC2CCCC2)c2cc(Cl)ccc2n1)c1cncs1 | 4.006%
COCCOCCNC(=O)C(C)Oc1ccccc1C(F)(F)F (centres undefined) | -40.89%
CN(C)CC(=O)N1CCN(CC(O)c2ccc(F)cc2)CC1 (centres undefined) | -10.01%
CCOCC1CN(C(=O)Cc2ccccn2)Cc2cnn(C)c21.O=C(O)C(F)(F)F.O=C(O)C(F)(F)F (centres undefined) | -7.447%
Cc1cccc(C)c1NC(=O)CN(C)C(C)c1nc(C(C)(C)C)no1 (centres undefined) | -31.41%
O=C(CN1CCCCC1Cn1cncn1)NCc1ccccn1 (centres undefined) | -42.51%
CNC(=O)CCOC(=O)c1cccc(-n2cccn2)c1 | -36.48%
Cc1cccc(OCC2CCCN(C(=O)CCn3ccccc3=O)C2)c1 (centres undefined) | -56.12%
CN(C)Cc1ccc(NC(=O)c2nccn3ccnc23)cc1 | -19.02%
O=C(O)C(F)(F)F.[H][C@@]12CN(Cc3ccoc3)CCO[C@]1([H])CN(C(=O)Cc1cccs1)C2 | -21.53%
COc1ccccc1CNCCc1cccc(C(N)=O)c1 | -31.95%
[H][C@]12COC[C@H](N3CCN(C)CC3)[C@@]1([H])CN(Cc1cccnc1)C2 | -20.76%
Cc1ccsc1CNC(=O)c1ccc2c(c1)CCC(=O)N2 | -74.78%
[H][C@]12CCN(Cc3cnn(C)c3)[C@@]1([H])C[C@@H](C(=O)N1CCOCC1)O2 | -14.16%
O=C(O)C(F)(F)F.O=C(O)C(F)(F)F.[H][C@@]12COC[C@@H](C(=O)NCc3ccccn3)[C@]1([H])CN(c1ncccn1)C2 | -7.47%
CNC(=O)c1cc2c(nc1NCC1CC1)CCN(c1ncccn1)CC2 | -15.39%
[H][C@@]12CNC(=O)N1CCN(C1CCOCC1)C2 | -8.086%
CN(C)c1cc(CNC(=O)c2cccc(F)c2)ccn1 | -24.01%
Cl.c1ccc(-c2cc(CNCCCC3CCOC3)c3nnnn3c2)cc1 (centres undefined) | -26.65%
CC(c1nc(C(C)(C)C)no1)N1CCC(N2CCCC2)CC1 (centres undefined) | -53.9%
CCC(C#N)NC(=O)CCCOc1cccc(C(C)=O)c1 (centres undefined) | -43.41%
O=C(C1=COCCO1)N1CC(Oc2nc3c(C(F)(F)F)cccc3s2)C1 | 2.684%
Cc1nc(C)n(CC2CCCN2c2ncnc3sc(C)c(C)c23)n1 (centres undefined) | -30.15%

Some entries from above, unchanged:

With CCOCC1CN(C(=O)Cc2ccccn2)Cc2cnn(C)c21.O=C(O)C(F)(F)F.O=C(O)C(F)(F)F (centres undefined) the screen gave -7.447%.
With [H][C@]12CC[C@]([H])(CN(CC(=O)N(C)C)C1)N(Cc1c(Cl)cncc1Cl)C2 the screen gave 8.456%.
With [H][C@]12CCN(Cc3cnn(C)c3)[C@@]1([H])C[C@@H](C(=O)N1CCOCC1)O2 the screen gave -14.16%.
With Cc1nc(N2Cc3cnn(Cc4ccc(F)cc4)c3C2)no1 the screen gave 12.66%.
With O=C(O)C(F)(F)F.[H][C@@]12CN(Cc3ccoc3)CCO[C@]1([H])CN(C(=O)Cc1cccs1)C2 the screen gave -21.53%.

Measurements from “University of Dundee, Small-Polar-MMV Screening Library” (2021), ChEMBL document CHEMBL3988442.